Results of single-concentration screens

Chains of the proteins cited; added tags and fusions are not shown. Residues count along the entry.
UniProt A4I591, 1-473: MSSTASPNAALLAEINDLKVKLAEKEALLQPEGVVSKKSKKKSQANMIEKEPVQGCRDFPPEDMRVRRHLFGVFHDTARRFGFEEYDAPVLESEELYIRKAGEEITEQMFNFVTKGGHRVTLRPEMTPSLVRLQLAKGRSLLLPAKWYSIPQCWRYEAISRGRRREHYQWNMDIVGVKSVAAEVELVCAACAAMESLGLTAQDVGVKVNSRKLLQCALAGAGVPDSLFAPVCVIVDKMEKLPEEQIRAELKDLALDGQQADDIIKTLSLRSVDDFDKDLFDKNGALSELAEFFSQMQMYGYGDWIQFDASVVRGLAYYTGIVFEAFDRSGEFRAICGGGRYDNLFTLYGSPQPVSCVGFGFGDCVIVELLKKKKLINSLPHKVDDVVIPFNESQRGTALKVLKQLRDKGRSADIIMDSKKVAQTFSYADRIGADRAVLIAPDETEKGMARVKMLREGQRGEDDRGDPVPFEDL
UniProt Q4DA54, 1-478: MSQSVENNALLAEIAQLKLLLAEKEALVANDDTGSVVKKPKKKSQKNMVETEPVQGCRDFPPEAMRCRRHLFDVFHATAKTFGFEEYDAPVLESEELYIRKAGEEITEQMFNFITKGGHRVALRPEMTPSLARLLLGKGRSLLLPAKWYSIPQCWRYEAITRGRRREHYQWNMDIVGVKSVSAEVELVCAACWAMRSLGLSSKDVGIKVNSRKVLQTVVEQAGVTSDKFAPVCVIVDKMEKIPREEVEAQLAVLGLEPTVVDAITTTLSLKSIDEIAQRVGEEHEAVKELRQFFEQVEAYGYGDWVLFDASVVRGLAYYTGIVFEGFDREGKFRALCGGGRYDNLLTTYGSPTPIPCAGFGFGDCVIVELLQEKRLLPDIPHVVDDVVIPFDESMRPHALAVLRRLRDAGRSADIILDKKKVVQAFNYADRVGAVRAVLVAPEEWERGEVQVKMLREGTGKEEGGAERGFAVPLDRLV
UniProt P9WPC5, whole entry: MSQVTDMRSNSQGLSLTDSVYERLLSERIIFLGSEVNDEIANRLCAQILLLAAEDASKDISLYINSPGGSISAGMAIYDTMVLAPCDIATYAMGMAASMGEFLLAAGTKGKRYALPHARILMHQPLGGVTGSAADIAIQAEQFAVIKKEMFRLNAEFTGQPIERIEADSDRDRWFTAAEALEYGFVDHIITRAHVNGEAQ
UniProt P9WPC3, whole entry partner: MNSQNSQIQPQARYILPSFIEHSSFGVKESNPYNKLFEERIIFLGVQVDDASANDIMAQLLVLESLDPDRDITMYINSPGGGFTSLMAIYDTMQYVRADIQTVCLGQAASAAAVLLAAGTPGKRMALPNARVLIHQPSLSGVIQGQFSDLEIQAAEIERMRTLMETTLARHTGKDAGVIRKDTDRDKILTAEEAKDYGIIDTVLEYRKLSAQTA

The values are deposited in ChEMBL (CHEMBL3988442, “University of Dundee, Small-Polar-MMV Screening Library” (2021)).

LiHisRS: 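Histidine-tRNA ligase, Leishmania infantum (UniProt A4I591). Enzyme assay of histidyl-tRNA synthetase; the read-out is not stated. Concentration: 30 µM. Direction is inferred from retests: higher values go with stronger inhibition. The assay is labelled LdHisRS but filed under L. infantum. About 69,000 compounds were tested under these conditions; 0.6% (about 410) showed 50% or more at least once.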
TcHisRS: 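Histidine-tRNA ligase, Trypanosoma cruzi CL Brener (UniProt Q4DA54). Enzyme assay of histidyl-tRNA synthetase; the read-out is not stated. Concentration: 30 µM. Direction is inferred from retests: higher values go with stronger inhibition. About 69,000 compounds were tested under these conditions; 0.045% (about 31) showed 50% or more at least once.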
ClpP1P2: 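ClpP1P2, Mycobacterium tuberculosis (UniProt P9WPC5 and UniProt P9WPC3). Protease assay of ClpP1P2, read by the AMC dye that it sets free. Concentration: 50 µM. Direction is inferred from only a few compounds that gave an IC50; most scored high, so higher reads as stronger inhibition. Most other retested compounds had strongly negative values. Of about 69,000 compounds tested this way, about 10 (0.015%) reached 50% or more in at least one test.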

The filed quantity is “Percent Effect” (%). How 0% and 100% were set is not recorded. Most values in the screen are low, and negative values occur. The compounds are a random part of those screened.

For O=C(Cc1ccc2c(c1)CCO2)N1CCN(c2ccccn2)CC1 the result was LiHisRS: 21.82%; TcHisRS: 7.602%; ClpP1P2: -8.661%. For CC(C)CN1C[C@H]2N(c3ncccn3)CCC[C@@]2(C(=O)NCC2CC2)C1 the result was LiHisRS: 2.727%; TcHisRS: 3.175%; ClpP1P2: -20.23%. Result for Cc1noc(C)c1CN(C)CC(c1cccs1)N1CCOCC1 (stereo not shown) was LiHisRS: 20%; TcHisRS: 7.602%; ClpP1P2: -17.25%. For CCN(C(=O)Nc1cc(C)on1)C(C)c1cccc(O)c1 (stereo not shown) the result was LiHisRS: 11.39%; TcHisRS: 4.741%; ClpP1P2: -16.76%.

For CO[C@H]1CN(S(=O)(=O)c2ccc(F)cc2)C[C@@]12CCCO2 the result was LiHisRS: -5.674%; TcHisRS: -5.639%; ClpP1P2: 31.19%. With CCN1CCC(c2cncc(N(C)C)n2)CC1 the screen gave LiHisRS: 9.489%; TcHisRS: -1.639%; ClpP1P2: 16.34%. Result for NC(=O)[C@@H]1Cc2ccccc2CN1S(=O)(=O)N1CCCCC1 was LiHisRS: 14.29%; TcHisRS: 13.86%; ClpP1P2: 2.165%. O=C(c1ccc[nH]1)N1CCc2c(COCc3ccncc3)cncc2C1 read LiHisRS: 21.62%; TcHisRS: 0.4975%; ClpP1P2: -6.504%.

Result for CC(C)c1ncc2c(n1)CN(Cc1nc(Cc3ccccc3)no1)CC2 was LiHisRS: 49.23%; TcHisRS: 7.28%; ClpP1P2: 3.261%. For CCn1nc(C(C)C)cc1C(=O)N1CCOc2ccc(OC)cc21 the result was LiHisRS: 0%; TcHisRS: 6.349%; ClpP1P2: 3.57%. Cc1cc(NC(=O)NCCCSc2nncn2C)no1 read LiHisRS: 17.2%; TcHisRS: 8.808%; ClpP1P2: 7.855%. COC(=O)c1cccn1C1CCN(C(=O)c2ccc(C)cc2O)CC1 read LiHisRS: 5.217%; TcHisRS: 3.448%; ClpP1P2: -24.1%.

With COc1ccc(CNC(=O)c2nn(C)c3c2CS(=O)(=O)CC3)cc1OC the screen gave LiHisRS: 13.59%; TcHisRS: -0.5464%; ClpP1P2: 2.126%. Cc1cc(C)n(C2CCCN(C(=O)CCCNc3ncccn3)C2)n1 (stereo not shown) read LiHisRS: 29.73%; TcHisRS: -0.3759%; ClpP1P2: -0.3699%. Result for CC(C)C(=O)Nc1cccc(CNC(=O)CSCc2ccccn2)c1 was LiHisRS: 8.235%; TcHisRS: 4.02%; ClpP1P2: -5.702%. For CC(C)(C)c1cnc(CN2CCC(NC(=O)Nc3ccccc3)CC2)o1 the result was LiHisRS: 26.32%; TcHisRS: 3.911%; ClpP1P2: 3.524%.

CCNC(=O)[C@@H]1CCCN1[C@@H](C(=O)NC)c1ccccc1 read LiHisRS: 30.56%; TcHisRS: 5.941%; ClpP1P2: -1.558%. For Cc1ccnc(NC(=O)c2cc(C)oc2C)c1 the result was LiHisRS: 1.316%; TcHisRS: 0.4926%; ClpP1P2: 7.897%. CNC(=O)Cc1nc(CNc2ccc(SC)c(F)c2)cs1 read LiHisRS: 2.74%; TcHisRS: 1.093%; ClpP1P2: -2.9%. With CC(C)OCCCNC(=O)C1CCCN(c2ccc3nncn3n2)C1 (stereo not shown) the screen gave LiHisRS: 31.17%; TcHisRS: -2.424%; ClpP1P2: -3.725%.

O=C1CC2(CCCNC2)C(=O)N1Cc1cccc(Cl)c1 (stereo not shown) read LiHisRS: -34.62%; TcHisRS: 2.913%; ClpP1P2: -2.554%. For NCC(c1cccnc1)N1CCOCC1 (stereo not shown) the result was LiHisRS: 13.04%; TcHisRS: 9.091%; ClpP1P2: -11.6%.

Once more, the final 2:

- O=C1CC2(CCCNC2)C(=O)N1Cc1cccc(Cl)c1 (stereo not shown) : LiHisRS: -34.62%; TcHisRS: 2.913%; ClpP1P2: -2.554%
- NCC(c1cccnc1)N1CCOCC1 (stereo not shown) : LiHisRS: 13.04%; TcHisRS: 9.091%; ClpP1P2: -11.6%